Data published in paper PMC10055641.
No constants are given. Whether binding was seen depends on the method and setting. In cells and extracts the contact can be indirect. Some binding calls cover weakened binding; strength is not graded here. For some of these results: Where a sequence is shown, tags or fusion partners need not be part of it.

Chains of the proteins cited; added tags and fusions are not shown. Lines headed by an entry give the natural chain unless they say otherwise; changes in a name come on top.
UniProt Q9NR12: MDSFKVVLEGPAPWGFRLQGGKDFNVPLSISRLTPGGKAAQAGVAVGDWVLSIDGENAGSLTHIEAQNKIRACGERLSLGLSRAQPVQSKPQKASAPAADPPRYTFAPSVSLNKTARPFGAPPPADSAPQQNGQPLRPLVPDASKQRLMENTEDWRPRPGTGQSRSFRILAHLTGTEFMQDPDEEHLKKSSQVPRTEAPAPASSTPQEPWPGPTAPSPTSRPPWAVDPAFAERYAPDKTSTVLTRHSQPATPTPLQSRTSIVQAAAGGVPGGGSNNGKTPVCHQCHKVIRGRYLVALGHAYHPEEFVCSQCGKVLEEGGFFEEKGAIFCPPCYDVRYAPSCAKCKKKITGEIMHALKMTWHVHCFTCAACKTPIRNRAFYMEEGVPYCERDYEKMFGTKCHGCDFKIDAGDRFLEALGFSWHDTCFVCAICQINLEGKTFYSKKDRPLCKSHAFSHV
UniProt Q00987: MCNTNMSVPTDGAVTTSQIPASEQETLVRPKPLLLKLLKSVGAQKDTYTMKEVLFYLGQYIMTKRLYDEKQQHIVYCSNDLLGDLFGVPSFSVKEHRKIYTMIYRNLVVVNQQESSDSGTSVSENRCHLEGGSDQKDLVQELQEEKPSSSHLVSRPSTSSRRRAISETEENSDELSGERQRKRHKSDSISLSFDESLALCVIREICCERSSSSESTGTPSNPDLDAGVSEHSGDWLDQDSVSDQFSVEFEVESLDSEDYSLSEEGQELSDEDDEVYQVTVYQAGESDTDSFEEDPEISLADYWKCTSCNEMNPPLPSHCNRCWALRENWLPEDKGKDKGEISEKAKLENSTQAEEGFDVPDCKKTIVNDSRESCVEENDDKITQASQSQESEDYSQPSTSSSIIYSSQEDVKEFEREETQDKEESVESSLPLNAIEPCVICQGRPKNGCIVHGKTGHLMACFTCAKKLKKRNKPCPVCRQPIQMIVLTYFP

B1: Flag-tagged OGA S652F mutant (enzyme, UniProt O60502 1-916)
chain: MVQKESQATLEERESELSSNPAASAGASLEPPAAPAPGEDNPAGAGGAAVAGAAGGARRFLCGVVEGFYGRPWVMEQRKELFRRLQKWELNTYLYAPKDDYKHRMFWREMYSVEEAEQLMTLISAAREYEIEFIYAISPGLDITFSNPKEVSTLKRKLDQVSQFGCRSFALLFDDIDHNMCAADKEVFSSFAHAQVSITNEIYQYLGEPETFLFCPTEYCGTFCYPNVSQSPYLRTVGEKLLPGIEVLWTGPKVVSKEIPVESIEEVSKIIKRAPVIWDNIHANDYDQKRLFLGPYKGRSTELIPRLKGVLTNPNCEFEANYVAIHTLATWYKSNMNGVRKDVVMTDSEDSTVSIQIKLENEGSDEDIETDVLYSPQMALKLALTEWLQEFGVPHQYSSRQVAHSGAKASVVDGTPLVAAPSLNATTVVTTVYQEPIMSQGAALSGEPTTLTKEEEKKQPDEEPMDMVVEKQEETDHKNDNQILSEIVEAKMAEELKPMDTDKESIAESKSPEMSMQEDCISDIAPMQTDEQTNKEQFVPGPNEKPLYTAEPVTLEDLQLLADLFYLPYEHGPKGAQMLREFQWLRANSSVVSVNCKGKDSEKIEEWRSRAAKFEEMCGLVMGMFTRLSNCANRTILYDMYSYVWDIKSIMFMVKSFVQWLGCRSHSSAQFLIGDQEPWAFRGGLAGEFQRLLPIDGANDLFFQPPPLTPTSKVYTIRPYFPKDEASVYKICREMYDDGVGLPFQSQPDLIGDKLVGGLLSLSLDYCFVLEDEDGICGYALGTVDVTPFIKKCKISWIPFMQEKYTKPNGDKELSEAEKIMLSFHEEQEVLPETFLANFPSLIKMDIHKKVTDPSVAKSMMACLLSSLKANGSRGAFCEVRPDDKRILEFYSKLGCFEIAKMEGFPKDVVILGRSL

How the values were obtained:
[1] = target: cMyc-tagged PDLIM7 (WT) (human) (UniProt Q9NR12); experiment: co-IP; cMyc-PDLIM7 precipitated from lysates of T-REx-293 cells with doxycycline-induced Flag-OGA (WT/S652F) expression and endogenous OGA knockdown, co-expressing cMyc-PDLIM7 (WT), HA-p53 and ubiquitin, MG132; western blot
[2] = target: cMyc-tagged PDLIM7 (WT) (human) (UniProt Q9NR12); experiment: co-IP; cMyc-PDLIM7 (WT/S89A) precipitated on anti-cMyc agarose from lysates of T-REx-293 cells with doxycycline-induced knockdown of endogenous PDLIM7, co-expressing HA-p53 and ubiquitin, MG132; in Fig. 6e with or without Nutlin-3a; western blot
[3] = target: cMyc-tagged PDLIM7 S89A mutant (human) (UniProt Q9NR12); experiment: as above

Molecule	binding [1]	binding [2]	binding [3]
MDM2 (from UniProt Q00987 1-491)	binds	binds	binds
B1	binds	–	–
